Laboratory results: PubChem BioAssay AID1259308 (NCATS, 2017)
Purpose: 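Knock-downs that increase output of a recombinant reporter protein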 (primary screen). System: human HEK293 embryonic kidney cells stably expressing firefly luciferase (HEK-CMV-Luc2-Hygro). Knock-down reagent: single siRNA against human genes, 0.8 pmol siRNA per well. Time to read-out: 72 h. Measured: 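Reporter luminescence and viable-cell signal on separate replicate plates, given as percent of non-targeting control and median/MAD z-scores, plus per-cell luciferase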. Scale: total luciferase, z-score and total luciferase, % of control: higher = more reporter protein produced; luciferase per cell, z-score: higher = more reporter output per viable cell; viable cells, % of control: higher = more viable cells. Hit rule: 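An siRNA counts as active if its total luciferase robust z-score exceeds 3; genes with two or more such siRNAs out of three were retested with fresh siRNAs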. Calls: active = raised luciferase; inactive = no rise.
The deposit covers about 59,000 reagents; below is a part drawn at random. About 1,510 of them (2.6%) count as active. 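Calls use total luciferase alone and ignore viability, so some active siRNAs may act by altering cell number.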 Unmarked entries are inactive. Reagents against one gene are numbered here.

| gene knocked down | reagent no. | total luciferase, z-score | total luciferase, % of control | luciferase per cell, z-score | viable cells, % of control |
| --- | --- | --- | --- | --- | --- |
| CD276 | 1 | 0.729 | 96.4 | 0.344 | 98.4 |
| CD276 | 2 | 1.29 | 108 | 0.707 | 99.8 |
| CD276 | 3 | 0.0401 | 82.7 | -0.3 | 100 |
| TUSC1 | 1 | 1.66 | 115 | 1.31 | 90.9 |
| TUSC1 | 2 | -0.601 | 69.9 | 0.0306 | 77.5 |
| TUSC1 | 3 | 0.24 | 86.7 | -0.0114 | 97.1 |
| ARLN | 1 | 1.02 | 102 | 1.62 | 74.5 |
| ARLN | 2 | -0.642 | 69.1 | -0.341 | 84.5 |
| ARLN | 3 | -0.00299 | 81.8 | -0.271 | 98.2 |
| HORMAD2 | 1 | 0.389 | 89.6 | 0.274 | 93.2 |
| HORMAD2 | 2 | -0.435 | 73.2 | -0.716 | 98.8 |
| HORMAD2 | 3 | -0.416 | 73.6 | -0.392 | 91.2 |
| EIF2AK4 | 1 | -0.966 | 62.7 | -1.21 | 96.3 |
| EIF2AK4 | 2 | -1.43 | 53.5 | -1.91 | 98.8 |
| EIF2AK4 | 3 | -0.604 | 69.9 | 0.483 | 68.8 |
| INTS2 | 1 | 4.18 (active) | 165 | 2.77 | 88.9 |
| INTS2 | 2 | 1.71 | 116 | 2.34 | 69.9 |
| INTS2 | 3 | 4.08 (active) | 163 | 2.13 | 104 |
| ARL6IP4 | 1 | 1.17 | 105 | 1.46 | 80 |
| ARL6IP4 | 2 | 1.96 | 121 | 1.47 | 91.8 |
| ARL6IP4 | 3 | -0.214 | 77.6 | 0.181 | 82.7 |
| ZNF818P | 1 | -0.123 | 79.4 | -0.238 | 94.5 |
| ZNF818P | 2 | -0.788 | 66.2 | -0.73 | 89.7 |
| ZNF818P | 3 | -1.12 | 59.6 | -1.72 | 105 |
| PDLIM3 | 1 | -0.0785 | 80.3 | -0.503 | 102 |
| PDLIM3 | 2 | 2.75 | 137 | 1.87 | 93.2 |
| PDLIM3 | 3 | -0.523 | 71.5 | -0.459 | 90.2 |
| RPL8 | 1 | -2.65 | 29.2 | -0.654 | 38.7 |
| RPL8 | 2 | -2.38 | 34.5 | 0.15 | 37.1 |
| RPL8 | 3 | -2.19 | 38.4 | -1.85 | 69.7 |
| SLC44A5 | 1 | -0.392 | 74.1 | -0.493 | 94.3 |
| SLC44A5 | 2 | -2.53 | 31.5 | -2.58 | 69.3 |
| SLC44A5 | 3 | -0.0688 | 80.5 | -0.606 | 106 |
| BEST3 | 1 | -0.925 | 63.5 | -0.947 | 91 |
| BEST3 | 2 | 3.48 (active) | 151 | 3.37 | 69.6 |
| BEST3 | 3 | -0.493 | 72.1 | -1.14 | 109 |
| PNPLA8 | 1 | -0.407 | 73.8 | -0.875 | 104 |
| PNPLA8 | 2 | -0.438 | 73.2 | -0.495 | 93.2 |
| PNPLA8 | 3 | 0.00225 | 81.9 | -0.513 | 105 |
